From PubChem BioAssay AID493014 (National Center for Advancing Translational Sciences (NCATS), 2011)
This is one part of the list. These are further read-outs of the screen, such as a control signal, another cell line or another target. No call is given for them. Compounds called inactive in the main read-out are mostly missing here. Words in brackets tell the shape of the fitted curve; partial curves, single points and poor fits give uncertain potencies.

Assay: qHTS Assay to Find Inhibitors of Chronic Active B-Cell Receptor Signaling
Conditions: ABC-DLBCL IkBa-CBG/CBR reporter, luminescence ratio (green luciferase fused to IkBa over red control in TMD8 lymphoma cells), 4 h
Outline: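 TMD8 ABC-DLBCL cells carrying doxycycline-inducible green luciferase fused to IkappaBalpha plus unfused red luciferase were exposed to compounds (up to 46 uM) for 4 hrs at 37C. Activity came from the overlap-corrected green/red luminescence ratio.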

[1] = measured here: CBR red luminescence, cell number
[2] = measured here: IkBa-CBG green luminescence

| SMILES | AC50 [1] | AC50 [2] |
| --- | --- | --- |
| Cc1cc(NC(=O)CSc2nnc(COc3cccc(C)c3C)n2Cc2ccco2)no1 | 29.1 µM [falling, single point] |  |
| NNC(=O)c1ccc(COc2ccc3ccccc3c2)cc1 | 20 µM [falling, partial curve, poor fit] |  |
| Nc1nc(SCC(=O)Nc2ccc(OCc3ccccc3)cc2)n[nH]1 | 22.4 µM [rising, single point] |  |
| CCCCC(=O)Nc1nnc(-c2ccco2)o1 | 35.5 µM [falling, single point] | 35.5 µM [falling, single point] |
| O=C(N/N=C/c1cccc(Oc2ccccc2)c1)c1cccc(O)c1 | 3.16 µM [falling, full curve] |  |
| COc1ccc(/C=C2\SC(N3CCCCC3)=NC2=O)cc1OC | 6.31 µM [rising, single point] |  |
| COc1ccc(OC)c(NC(=O)c2cc3sccc3n2C)c1 | 5.01 µM [falling, partial curve, poor fit] |  |
| N/C(Cc1ccc(Cl)cc1)=N\OC(=O)c1cccc2ccccc12 | 8.91 µM [rising, partial curve, poor fit] |  |
| CCOc1ccc(-c2ccc(SCC(=O)Nc3nnc(C)s3)nn2)cc1 | 0.631 µM [falling, full curve, poor fit] |  |
| CCOc1ccc(C(=O)CC(Sc2ccc(C)cc2)C(=O)O)cc1 (stereo not drawn) | 35.5 µM [falling, single point] | 14.1 µM [rising, partial curve, poor fit] |
| CC(=O)c1ccc(OC(C)c2nc3ccccc3s2)cc1 (stereo not drawn) | 7.08 µM [rising, full curve] |  |
| COc1ccc(-n2c(C)cc(/C=C3/SC(=O)N(CC(=O)N4CCOCC4)C3=O)c2C)cc1 | 29.1 µM [rising, single point] |  |
| COc1cc2c(cc1OC)C(c1ccc(Br)cc1)CC(=O)N2 (stereo not drawn) |  | 11.2 µM [falling, partial curve, poor fit] |
| COC(=O)c1sccc1NC(=O)Nc1ccc(OC)cc1OC | 5.01 µM [falling, partial curve, poor fit] |  |
| COc1cc(/C=C/C(=O)c2ccc3c(c2)OCCO3)cc(Br)c1OCC(=O)N(C)C | 15.8 µM [falling, partial curve, poor fit] |  |
| O=C(NCc1ccco1)c1ccc(S(=O)(=O)c2cccc(S(=O)(=O)N3CCOCC3)c2)cc1 | 0.259 µM [rising, full curve, poor fit] |  |
| Cc1ccc(C(=O)COc2ccccc2-c2ccccc2)cc1C | 2.06 µM [rising, partial curve, poor fit] |  |
| O=C1Cc2ccccc2C(=O)N1CCc1ccccc1 | 15.8 µM [falling, single point] |  |
| O=C(O)c1cncc(C#Cc2ccccc2)c1 | 35.5 µM [rising, single point] |  |
| Cn1cc(CN2CCc3ccccc3C2)c2ccccc21 | 1.46 µM [falling, full curve, poor fit] |  |
| CCCN(CCC)CCCNS(=O)(=O)c1ccc2c(c1)oc(=O)n2C | 2.06 µM [falling, single point] |  |

| SMILES | AC50 [1] | AC50 [2] |
| --- | --- | --- |
| Cc1cccc(/C=C2\Sc3ccc(C(=O)N4CCC(C)CC4)cc3N(C)C2=O)c1 | 20 µM [falling, partial curve, poor fit] |  |
| O=C1N(Cc2ccc(F)cc2Cl)c2ccccc2C12OCCCO2 | 16.4 µM [rising, single point] |  |
| O=C(CCC(=O)N1CCOc2ccc(Cl)cc21)NCCCN1CCC(Cc2ccccc2)CC1 | 0.251 µM [falling, full curve, poor fit] |  |
| O=C(c1ccncc1)N1CCCC(N2CCN(c3ccc(F)cc3)CC2)C1 (stereo not drawn) | 35.5 µM [falling, single point] |  |
| CCC(=O)Nc1ccc(C(=O)N2CCN(C(=O)c3ccco3)CC2)cc1 | 6.31 µM [falling, single point] |  |
| CCc1nnc(NC(=O)CS(=O)(=O)c2ccccc2)s1 | 35.5 µM [falling, single point] |  |
| Cc1cccc(/C=N/NC(=O)c2cc(C)nc3ccccc23)n1 | 35.5 µM [falling, single point] |  |
| CC(=O)CCc1c[nH]c2c(C(=O)O)cccc12 | 0.411 µM [rising, partial curve, poor fit] |  |
| FC(F)(F)c1ccc(Oc2ccc3ccccc3c2Br)nc1 | 14.6 µM [rising, partial curve, poor fit] |  |
| CCOC(=O)c1ccccc1NC(=O)CSc1nnnn1C | 13 µM [falling, partial curve, poor fit] |  |
| Cc1ccccc1OCC(=O)NNC(=O)CCN1C(=O)c2ccccc2C1=O | 17.8 µM [rising, single point] |  |
| COc1ccc(CNc2cc(C)nc3ncnn23)c(OC)c1 | 13 µM [rising, partial curve] |  |
| COc1ccccc1C(=O)Nc1nnc(S(=O)(=O)N2CCCCCC2)s1 | 0.316 µM [rising, full curve, poor fit] |  |
| CCn1c(SCC(=O)N/N=C/c2c[nH]c3ccccc23)nnc1-c1ccc(C(C)(C)C)cc1 | 16.4 µM [falling, single point] |  |
| Cc1nc(SCC(=O)c2ccccc2)c(C#N)c(-c2ccco2)c1C(=O)NCc1ccco1 | 35.5 µM [falling, single point] |  |
| Cc1ccc(OCC(O)CNC(=O)c2ccccc2C(=O)O)cc1 (stereo not drawn) | 10 µM [rising, partial curve, poor fit] |  |
| Nc1c(C(=O)N2CCCCCC2)oc2ccccc12 | 5.01 µM [rising, full curve, poor fit] |  |
| Cc1ccc(-c2csnn2)cc1 | 35.5 µM [rising, single point] |  |
| CC(C)CC(=O)NC(=S)Nc1ccc(Cl)cn1 | 23.1 µM [rising, partial curve, poor fit] |  |
| CCC(COC)Oc1cc(NCc2ccccc2)c2ncn(C(C)C)c2c1 (stereo not drawn) | 20.6 µM [falling, single point] | 16.4 µM [rising, partial curve, poor fit] |
| Cc1ccccc1S(=O)(=O)N1[C@@H](c2ccc(Cl)cc2)C(C(=O)O)=CC[C@H]1c1ccc(Cl)cc1 | 23.1 µM [falling, partial curve, poor fit] |  |

In a second layout: results already given.
SMILES	AC50 [1]	AC50 [2]
O=C(CCC(=O)N1CCOc2ccc(Cl)cc21)NCCCN1CCC(Cc2ccccc2)CC1	0.251 µM [falling, full curve, poor fit]	
CCc1nnc(NC(=O)CS(=O)(=O)c2ccccc2)s1	35.5 µM [falling, single point]	

The list continues:

| SMILES | AC50 [1] | AC50 [2] |
| --- | --- | --- |
| Cc1cccc(-c2nnc(SCC(=O)NC3CC3)n2C)c1 | 8.91 µM [rising, partial curve] |  |
| C[C@H](CO)N1C[C@H](C)[C@@H](CN(C)C(=O)Nc2ccc(C(F)(F)F)cc2)Oc2c(NC(=O)Nc3ccc(C(F)(F)F)cc3)cccc2C1=O | 20.6 µM [falling, single point] |  |
| COc1cccc(NC(=O)CN(c2ccc([N+](=O)[O-])cc2)S(=O)(=O)c2ccccc2)c1 | 29.1 µM [falling, partial curve, poor fit] |  |
| CC(C)(C)C(=O)NNC(=O)c1cc(C(C)(C)C)nn1Cc1ccccc1 | 35.5 µM [rising, single point] |  |
| CCOC(=O)c1sc(NC(=O)c2ccc3nc[nH]c3c2)nc1C | 0.708 µM [falling, full curve] |  |
| COCCCNC(=O)CC1C[C@H](C(=O)N2CCCCC2)[C@@]2(CCc3ccccc3)c3[nH]c4ccc(OC)cc4c3CCN2C1=O (stereo partly drawn) | 25.9 µM [rising, single point] |  |
| CC1CCN(c2nnc(N)s2)CC1 | 8.91 µM [falling, partial curve, poor fit] |  |
| CCCC(C(=O)O)n1c(O)c(C=C2N=c3ccccc3=N2)sc1=S (stereo not drawn) | 1 µM [falling, partial curve, poor fit] |  |
| O=c1[nH]c2ccccc2n1CCCSCCCn1c(=O)[nH]c2ccccc21 | 11.2 µM [falling, partial curve, poor fit] |  |
| CC(=O)c1cccc(Nc2ccc(-c3ccccc3F)nn2)c1 | 14.1 µM [falling, partial curve] |  |
| C=C(C)C(=O)Nc1nnc(-c2cccs2)s1 | 29.1 µM [falling, single point] |  |
| O=C(CSC1=NCCN1)Nc1cccc([N+](=O)[O-])c1 | 14.1 µM [falling, partial curve, poor fit] |  |
| O=C(NCC1CCCO1)c1ccccc1-c1nc(-c2ccc(Cl)cc2)no1 (stereo not drawn) | 13 µM [rising, partial curve] |  |
| CCCCn1nnc(NC(=S)NC(=O)c2cccs2)n1 | 20.6 µM [falling, single point] | 25.9 µM [falling, single point] |
| Cc1cc(OCC(=O)O/N=C(\N)c2ccccc2)ccc1Br | 29.1 µM [falling, single point] |  |
| Oc1ccc(NC(=S)N=Nc2c(O)[nH]c3ccc(Br)cc23)cc1 | 14.1 µM [falling, partial curve] | 31.6 µM [rising, partial curve, poor fit] |
| CCOC(=O)N1CCN(c2c(NCc3ccc(Cl)cc3)c(=O)c2=O)CC1 | 29.1 µM [rising, single point] | 18.4 µM [falling, single point] |
| O=c1[nH]c(C(Cl)Cl)nc2sc3c(c12)CCN(Cc1ccccc1)C3 | 23.1 µM [rising, partial curve, poor fit] |  |
| O=c1oc2ccccc2c(NC2CCCCC2)c1NS(=O)(=O)c1ccc(Cl)cc1 | 2.82 µM [falling, partial curve, poor fit] |  |
| O=C(/C=C/c1ccccc1)Nc1ccc(Cl)cn1 | 3.55 µM [falling, full curve] |  |
